In PubChem BioAssay AID493014 (National Center for Advancing Translational Sciences (NCATS), 2011):
Some of the results follow. Shown are side measurements of this screen, not its main read-out; they come without a call. Most of these compounds were active or inconclusive in the main read-out, so they are no random draw. Words in brackets tell the shape of the fitted curve; partial curves, single points and poor fits give uncertain potencies.

Assay: qHTS Assay to Find Inhibitors of Chronic Active B-Cell Receptor Signaling
Conditions: ABC-DLBCL IkBa-CBG/CBR reporter, luminescence ratio (green luciferase fused to IkBa over red control in TMD8 lymphoma cells), 4 h
Procedure, shortened: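 TMD8 human ABC-DLBCL cells with doxycycline-inducible IκBα–green luciferase fusion and unfused red luciferase, in 0.5% FBS medium; compounds up to 46 uM, 4 h at 37C. Green/red luminescence ratio, filter-overlap corrected, fitted to concentration-response curves.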

[1] = measured here: CBR red luminescence, cell number
[2] = measured here: IkBa-CBG green luminescence

Row | SMILES | AC50 [1] | AC50 [2]
1 | COc1ccccc1NC(=S)N/N=C/c1ccc(O)cc1 | 23.1 µM [falling, partial curve, poor fit] | 20.6 µM [falling, partial curve, poor fit]
2 | N=c1c(C(=O)NC2CCCCC2)cc2c(=O)n3ccccc3nc2n1CC1CCCO1 (stereo unspecified) | 8.91 µM [rising, partial curve] | –
3 | CSc1nc(C)cc(C)c1C(N)=O | 0.103 µM [falling, full curve, poor fit] | –
4 | COc1ccc(C(=O)N2CCN(C(=O)c3cc(OC)c(OC)c(OC)c3)CC2)cc1 | 29.1 µM [rising, single point] | –
5 | N#Cc1c(NC(=S)NC(=O)C2CCCC2)sc2c1CCCCC2 | 0.82 µM [rising, full curve, poor fit] | –
6 | CCCCC(=O)Nc1ccc(NC(=O)CCCC)nc1 | 0.326 µM [rising, full curve, poor fit] | –
7 | COc1ccc(-c2noc(CCC(=O)N3CCN(c4ccccc4C)CC3)n2)cc1 | 6.51 µM [rising, partial curve, poor fit] | –
8 | CSC1=N/C(=C\c2cccc(Cl)c2)C(=O)N1N(C)C | 12.6 µM [rising, partial curve, poor fit] | –
9 | O=c1[nH]c2cc3c(cc2cc1C(c1nnnn1CC1CCCO1)N1CCCC1)OCO3 (stereo unspecified) | 13 µM [rising, partial curve, poor fit] | –
10 | C/C=C/c1ccc(OCCOc2ccc(C=O)cc2)c(OC)c1 | 29.1 µM [rising, single point] | –
11 | Cc1cc([N+](=O)[O-])ccc1NC(=O)/C=C/c1cccs1 | 0.651 µM [rising, full curve, poor fit] | –
12 | COc1cc(-c2nnc(SCC(=O)c3ccc(C)cc3)o2)cc(OC)c1OC | – | 13 µM [falling, partial curve, poor fit]
13 | COc1ccc(CC(C#N)(CO)c2nc3ccccc3[nH]2)cc1 (stereo unspecified) | 32.6 µM [falling, single point] | –
14 | O=C(CCl)NCCCCCCCCCNC(=O)CCl | 32.6 µM [falling, single point] | –
15 | COc1cc(C2CC(=O)Oc3c(C(CCN4CCOCC4)c4ccc(N(C)C)cc4)c(OC)cc(OC)c32)cc(OC)c1OC (stereo unspecified) | 0.708 µM [rising, full curve, poor fit] | –
16 | COc1cc(CN2CCCC(CO)(Cc3cccc(Cl)c3)C2)cc2c1OCO2 (stereo unspecified) | 0.501 µM [rising, partial curve, poor fit] | –
17 | Nc1nc(Cl)nc2c1ncn2[C@@H]1O[C@H](CO)[C@@H](O)[C@H]1O | 7.31 µM [rising, partial curve] | 1 µM [falling, full curve]
18 | COc1ccccc1CNC(=O)[C@H](Cc1c[nH]c2ccccc12)NC(=O)[C@@H]1Cc2ccccc2CN1 | 20 µM [falling, single point] | –
19 | Cc1nnc(SCC(=O)NCc2ccccc2Cl)n(N)c1=O | 16.4 µM [rising, single point] | –
20 | COc1ccc(-c2ccc(=O)n(CC(=O)Nc3ccc(OC)c(OC)c3)n2)cc1 | – | 12.6 µM [rising, partial curve, poor fit]
21 | CCC(=O)Nc1c(C)nn(-c2ccc(C)c(C)c2)c1C | 20.6 µM [rising, partial curve] | –

Quoted from above, compounds 8 to 12
Row | SMILES | AC50 [1] | AC50 [2]
8 | CSC1=N/C(=C\c2cccc(Cl)c2)C(=O)N1N(C)C | 12.6 µM [rising, partial curve, poor fit] | –
9 | O=c1[nH]c2cc3c(cc2cc1C(c1nnnn1CC1CCCO1)N1CCCC1)OCO3 (stereo unspecified) | 13 µM [rising, partial curve, poor fit] | –
10 | C/C=C/c1ccc(OCCOc2ccc(C=O)cc2)c(OC)c1 | 29.1 µM [rising, single point] | –
11 | Cc1cc([N+](=O)[O-])ccc1NC(=O)/C=C/c1cccs1 | 0.651 µM [rising, full curve, poor fit] | –
12 | COc1cc(-c2nnc(SCC(=O)c3ccc(C)cc3)o2)cc(OC)c1OC | – | 13 µM [falling, partial curve, poor fit]

Next part

Row | SMILES | AC50 [1] | AC50 [2]
22 | O=[N+]([O-])c1cccc(C2=NCCC(c3ccccc3)O2)c1 (stereo unspecified) | 10.3 µM [rising, partial curve] | –
23 | COc1ccc(CNC(=O)c2cc(-c3cccs3)on2)cc1 | 5.01 µM [falling, partial curve, poor fit] | –
24 | CCn1c2ccccc2c2cc(NC(=O)c3cccc(OC)c3)ccc21 | 5.8 µM [falling, single point] | –
25 | CC1CCCCC1NC(=O)CCCc1nc2ccccc2c(=O)[nH]1 (stereo unspecified) | 29.1 µM [rising, single point] | –
26 | CC(=O)c1cccc(NC(=O)CN2C(=O)C(=O)N(Cc3ccco3)C2=O)c1 | 4.11 µM [rising, full curve, poor fit] | –
27 | CCNc1oc(/C=C/c2ccc(OCC)cc2)nc1C#N | 5.01 µM [rising, single point] | –
28 | Cc1cc(C(=O)Nc2c(C)nn(Cc3ccccc3)c2C)on1 | 0.731 µM [rising, partial curve, poor fit] | –
29 | COc1cccc(NC(=O)N2CCc3ccccc3C2)c1 | 14.1 µM [falling, partial curve] | –
30 | Cc1ccc(-c2cn(-c3ccccc3)c(SCC(N)=O)n2)cc1C | 1.3 µM [rising, full curve] | –
31 | CC(=O)N/C(=N/c1nc(C)cc(C)n1)Nc1ccc(F)cc1F | 2.82 µM [falling, single point] | –
32 | O=C(O)c1ccc(CNC(=O)c2ccccc2NC(=O)c2cccc([N+](=O)[O-])c2)cc1 | 35.5 µM [falling, single point] | –
33 | O=C(N/N=C/C1CCCCC1)c1ccccc1-n1cccc1 | 18.4 µM [rising, single point] | –
34 | COc1cccc(C(=O)Nc2ccc(N3CCN(S(C)(=O)=O)CC3)cc2)c1 | 0.164 µM [falling, full curve, poor fit] | –
35 | COC(=O)c1ccccc1NCCO | 0.112 µM [rising, full curve, poor fit] | –
36 | CCC1Sc2ccc(S(=O)(=O)CCC(=O)Nc3ccc(OC(F)(F)F)cc3)cc2NC1=O (stereo unspecified) | 28.2 µM [falling, single point] | –
37 | CCCCNC(=O)c1cccc(S(=O)(=O)N2CC3(C)CC2CC(C)(C)C3)c1 (stereo unspecified) | 18.4 µM [falling, partial curve, poor fit] | –
38 | CCCCOc1ccc(NC(=O)C(=O)NCCCn2ccnc2)cc1 | 5.8 µM [rising, partial curve, poor fit] | –
39 | Cn1c(SCc2ccccc2)nc2ccsc2c1=O | 6.31 µM [rising, partial curve, poor fit] | –
40 | Cc1cccc(C(=O)O/N=C(\N)CS(=O)(=O)c2ccccc2)c1 | 2.82 µM [rising, partial curve, poor fit] | –
41 | COc1ccc(C(=O)/C=C/Nc2ccc([N+](=O)[O-])cc2)cc1 | 0.731 µM [rising, full curve] | –
42 | O=c1oc2ccccc2n1CCCOc1ccccc1 | 4.11 µM [rising, partial curve, poor fit] | –

Row | SMILES | AC50 [1] | AC50 [2]
43 | O=[N+]([O-])c1ccccc1S(=O)(=O)Nc1cccc2cccnc12 | 3.55 µM [rising, full curve, poor fit] | 3.55 µM [falling, partial curve, poor fit]
44 | COC(=O)C1CCN(C(=O)C(C)Oc2ccc(Cl)cc2Cl)CC1 (stereo unspecified) | 6.51 µM [falling, single point] | –
45 | COc1cccc(NC(=O)CN(C)C(=O)CCNC(=O)c2ccc(Br)cc2)c1 | 25.9 µM [rising, partial curve, poor fit] | –
46 | COc1cc2c(cc1NS(=O)(=O)N1CCCC1)oc1ccccc12 | 11.6 µM [rising, partial curve, poor fit] | –
47 | COc1ccc(S(=O)(=O)N(CC(=O)Nc2ccc3c(c2)OCO3)c2ccccc2OC)cc1 | 14.1 µM [falling, single point] | –
48 | Cc1cccnc1-n1c(CCN2C(=O)c3ccccc3C2=O)nc2ccccc2c1=O | 0.708 µM [rising, full curve, poor fit] | –
49 | COc1ccc(OC)c(C2CC(c3ccc(NS(C)(=O)=O)cc3)=NN2C(=O)c2ccccc2)c1 (stereo unspecified) | 0.398 µM [rising, full curve, poor fit] | –
50 | CCCCCCCCSc1n[nH]c(N)n1 | 29.1 µM [rising, single point] | –
51 | Cc1cccc(CSc2ncccc2C(=O)O)c1 | 0.517 µM [rising, partial curve, poor fit] | –
52 | O=C(CSc1ncnc2c1cnn2-c1ccccc1)NC1CCS(=O)(=O)C1 (stereo unspecified) | 11.6 µM [falling, partial curve, poor fit] | –
53 | O=C(CNc1ccc(Br)cc1)c1ccccc1 | 1.41 µM [rising, partial curve] | –
54 | COC(=O)c1sccc1-c1ccc(C(=O)Nc2ccccc2)o1 | 5.62 µM [falling, partial curve, poor fit] | –
55 | COc1ccc(CCNC(=O)C(=O)NCC2OCCN2S(=O)(=O)c2ccc(C)cc2)cc1OC (stereo unspecified) | 8.91 µM [falling, partial curve] | –
56 | CSc1nc2nc3c(c(=O)n2[nH]1)CN(Cc1ccccc1)CC3 | 2 µM [falling, partial curve, poor fit] | –
57 | CCN(CC)C(=O)CSc1nnc(-c2cccnc2)n1CCc1ccccc1 | 2.24 µM [falling, partial curve, poor fit] | –
58 | Cn1cccc1C(=O)Nc1nc(-c2ccccn2)cs1 | 17.8 µM [falling, partial curve, poor fit] | –
59 | COc1ccc(N2C(=O)C3C(C2=O)C(C(=O)c2ccccc2)N2CCCC32)cc1 (stereo unspecified) | 20 µM [falling, partial curve] | –
60 | CCCCNS(=O)(=O)c1ccc2nc(SCC(N)=O)[nH]c2c1 | 10 µM [rising, partial curve, poor fit] | –
61 | O=C(ONC1=NCCCCC1)c1ccc([N+](=O)[O-])cc1 | 12.6 µM [rising, partial curve, poor fit] | –
62 | Cc1ccc2nc(NC(=O)Cn3cc4c(n3)CCCCC4)sc2c1 | 18.4 µM [falling, single point] | –
63 | COc1ccc(C(CC(=O)N2CCCC2)C(C)C)cc1 (stereo unspecified) | 3.16 µM [falling, full curve, poor fit] | –
